PubChem BioAssay AID504808, Drosophila RNAi Screening Center, 2011
Aim: 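Genes whose loss lifts activity of an E2F-responsive reporter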 (primary screen). System: Drosophila S2 cells. Knock-down reagent: long dsRNA against Drosophila genes. Measured: 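Firefly luciferase driven by E2F sites, normalised to Renilla luciferase on the same minimal promoter, measured by plate reader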. Reading the numbers: E2F firefly: higher = more E2F reporter activity; Renilla normaliser: higher = more normaliser reporter signal. Active means: 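Called active if the normalised E2F reporter went up by over 50%; the cutoff is arbitrary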.
The screen tested about 21,000 reagents; this is an unselected part of those with a known target gene and a result. Of all reagents, 18 (0.084%) got an active call. 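Raw counts without plate normalisation, one of two replicates; the ratio scores behind the calls were not deposited.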 A plus sign joins genes that one reagent is predicted to hit. No sequences are given here. Not stated in the record: the amount of reagent, the time to read-out.

target gene	DRSC id	E2F firefly, rep 1	Renilla normaliser, rep 1	outcome
CG13272	DRSC02249	98903	4860	inactive
bard	DRSC14796	1.26e5	7116	inactive
CG31882	DRSC01084	1.48e5	6416	inactive
CG34256	DRSC09582	73869	2701	inactive
Ugt37E1 (UDP-glycosyltransferase family 37 member E1)	DRSC02248	1.11e5	4765	inactive
CG1544	DRSC15036	1918	1048	inactive
mei-P22 (meiotic P22)	DRSC11366	97033	4613	inactive
l(2)37Cd (lethal (2) 37Cd)	DRSC02069	79148	3155	inactive
Dim1	DRSC00563	1.23e5	5801	inactive
CG15650	DRSC04241	1.04e5	4215	inactive
Bcs1 (Bcs1 chaperone)	DRSC02789	1.65e5	5587	inactive
CG14262	DRSC14757	1.19e5	5909	inactive
Grl62c (Gustatory receptor-like 62c)	DRSC07964	1.33e5	3901	inactive
CG31267	DRSC15748	1.09e5	5390	inactive
CdGAPr (Cd GTPase activating protein-related)	DRSC03289	98329	3943	inactive
CG2663	DRSC12314	1.21e5	5748	inactive
CarT (Carcinine transporter)	DRSC03196	75063	3565	inactive
Tsp42Ea (Tetraspanin 42Ea)	DRSC04982	1.50e5	4672	inactive
Tsp42Ea (Tetraspanin 42Ea)	DRSC06792	1.57e5	5542	inactive
CG12641 (retired record)	DRSC17848	89832	6625	inactive
CkIIalpha-i3 (CKII-alpha subunit interactor-3)	DRSC08651	79729	3361	inactive
CG11141	DRSC06048	89480	3625	inactive
RecQ4 (RecQ4 helicase)	DRSC11265	1.26e5	3218	inactive
EndoA (Endophilin A)	DRSC14775	72743	3952	inactive
CR30374 (pseudo)	DRSC05080	1.38e5	5514	inactive
Rpt4 (Regulatory particle triple-A ATPase 4)	DRSC18713	37252	4499	inactive
CG13204	DRSC06328	92596	4144	inactive
Trm1 (tRNA methyltransferase 1)	DRSC02951	84391	3735	inactive
Ser7	DRSC18201	7743	776	inactive
GstO2 (Glutathione S transferase O2)	DRSC10691	69597	3472	inactive
Drsl5 (Drosomycin-like 5)	DRSC08159	93486	4714	inactive
CG17104	DRSC02573	88437	3815	inactive
Pex23 (Peroxin 23)	DRSC10323	70136	3673	inactive
Pex23 (Peroxin 23)	DRSC10645	1.22e5	6238	inactive
CG7011	DRSC09347	1.28e5	3787	inactive
CG14073	DRSC10078	1.45e5	7044	inactive
Mst98Cb (Male-specific RNA 98Cb)	DRSC16750	1.15e5	5893	inactive
Pgant5 (Polypeptide N-Acetylgalactosaminyltransferase 5)	DRSC03149	81550	2939	inactive
CG32945	DRSC12014	98779	4119	inactive
ara (araucan)	DRSC11322	97307	5344	inactive
swi2	DRSC06457	1.47e5	5188	inactive
CG13310	DRSC09981	99550	4010	inactive
CG17683	DRSC21160	1.34e5	6785	inactive
trc (tricornered)	DRSC11406	1.22e5	5317	inactive
tsu (tsunagi)	DRSC07265	1.59e5	4600	inactive
Ank (Ankyrin)	DRSC17127	1932	872	inactive
Coq3 (Coenzyme Q3)	DRSC03168	78226	3467	inactive
CG13247	DRSC11695	1.43e5	5904	inactive
Marf (Mitochondrial assembly regulatory factor)	DRSC18329	7677	812	inactive
Cip4 (Cdc42-interacting protein 4)	DRSC08091	1.35e5	4384	inactive
Cip4 (Cdc42-interacting protein 4)	DRSC08469	67303	3607	inactive
CG14089	DRSC10093	1.53e5	6576	inactive
EndoB (Endophilin B)	DRSC07345	1.43e5	4898	inactive
fd3F (retired record)	DRSC17843	54653	4068	inactive
CG6067	DRSC18399	1.03e5	6120	inactive
Send2 (Spermathecal endopeptidase 2)	DRSC01906	1.07e5	4303	inactive
CG31933	DRSC00457	1.62e5	6051	inactive
Arl6 (ADP ribosylation factor-like 6)	DRSC07031	1.57e5	5259	inactive
Sos (Son of sevenless)	DRSC03439	1.01e5	4037	inactive
CG30095	DRSC07175	1.55e5	5065	inactive
CG16790	DRSC15156	1.39e5	6136	inactive
AOX3 (Aldehyde oxidase 3)	DRSC15955	91986	4446	inactive
Nfs1 (Nfs1 cysteine desulfurase)	DRSC02154	78843	3419	inactive
DCTN3-p24 (Dynactin 3, p24 subunit)	DRSC04592	69947	3678	inactive
sov (small ovary)	DRSC17930	9031	768	inactive
CG6403	DRSC16033	1.21e5	5716	inactive
CG17140 + CG17139	DRSC02585	1.67e5	5246	inactive
CG17140 + CG17139	DRSC02586	1.65e5	5155	inactive
IFT52 (Intraflagellar transport 52)	DRSC03271	1.53e5	5260	inactive
CG14380	DRSC14840	1.26e5	6198	inactive
Akr1B (Aldo-keto reductase 1B)	DRSC10581	83476	3499	inactive
Slip1 (SLo interacting protein 1)	DRSC17146	1851	960	inactive
ZnT86D (Zinc transporter 86D)	DRSC16091	1.63e5	7276	inactive
l(2)efl (lethal (2) essential for life)	DRSC04698	78917	3207	inactive
Rpn2 (Regulatory particle non-ATPase 2)	DRSC16839	1296	1140	inactive
Sdb (SAXO downstream of blistered)	DRSC06272	88723	3809	inactive
Sdb (SAXO downstream of blistered)	DRSC06273	95449	4319	inactive
Sdb (SAXO downstream of blistered)	DRSC07155	2945	193	inactive
CG43894	DRSC10123	81160	4938	inactive
DNaseII (Deoxyribonuclease II)	DRSC16310	64980	3105	inactive
Cen (Centrocortin)	DRSC02704	78513	3120	inactive
Hex-t1 (Hexokinase testis 1)	DRSC16701	1.03e5	6039	inactive
CG12035	DRSC08238	70596	3382	inactive
kek4 (kekkon 4)	DRSC03220	88410	3502	inactive
Dtd (D-aminoacyl-tRNA deacylase)	DRSC15362	1.27e5	5641	inactive
CG15117	DRSC06539	81380	3905	inactive
ND-20 (NADH dehydrogenase (ubiquinone) 20 kDa subunit)	DRSC20164	7698	748	inactive
CG3581	DRSC15499	1.39e5	5973	inactive
geko	DRSC10044	1.54e5	9070	inactive
geko	DRSC10045	1.71e5	8857	inactive
mol (moladietz)	DRSC01431	1.18e5	3439	inactive
mol (moladietz)	DRSC01912	93701	3251	inactive
mol (moladietz)	DRSC02479	1.11e5	3931	inactive
CG12699	DRSC06162	79625	3455	inactive
qvr (quiver)	DRSC05280	1.37e5	5383	inactive
squ (squash)	DRSC01549	1.45e5	5445	inactive
mRpL45 (mitochondrial ribosomal protein L45)	DRSC16146	87998	6161	inactive
Dscam3 (Down syndrome cell adhesion molecule 3)	DRSC14525	1.22e5	6129	inactive
Dscam3 (Down syndrome cell adhesion molecule 3)	DRSC16376	1.08e5	6907	inactive
Xport-A + Xport-B	DRSC15586	67661	2964	inactive
CG13231	DRSC06351	93186	3759	inactive
CG5937	DRSC18392	1.03e5	4342	inactive
CG9706	DRSC11095	74116	3556	inactive
Fdx2 (Ferredoxin 2)	DRSC08306	83241	3866	inactive
CG2712	DRSC18589	2074	880	inactive
CG10336	DRSC02037	83929	3593	inactive
Cyp6a17 (Cytochrome P450 6a17)	DRSC07378	102	37	inactive

Sorted by “E2F firefly, rep 1” (ascending): 9 of the entries above.
target gene	DRSC id	E2F firefly, rep 1	Renilla normaliser, rep 1	outcome
Rpt4 (Regulatory particle triple-A ATPase 4)	DRSC18713	37252	4499	inactive
EndoA (Endophilin A)	DRSC14775	72743	3952	inactive
CkIIalpha-i3 (CKII-alpha subunit interactor-3)	DRSC08651	79729	3361	inactive
CG11141	DRSC06048	89480	3625	inactive
CG12641 (retired record)	DRSC17848	89832	6625	inactive
CG13204	DRSC06328	92596	4144	inactive
RecQ4 (RecQ4 helicase)	DRSC11265	1.26e5	3218	inactive
CR30374 (pseudo)	DRSC05080	1.38e5	5514	inactive
Tsp42Ea (Tetraspanin 42Ea)	DRSC06792	1.57e5	5542	inactive
